In PMC10394028:
Residue numbers refer to the chain shown, from its start. No constants are given. Whether binding was seen depends on the method and setting. Binding seen in cells or lysates may run through a third protein. Binding calls can cover weak binding; strength is not graded here. Tags and fused reporters may be left off the sequences shown.

Legend:
Myc-tagged TRIB1 (human) = biological target: T1, Myc-tagged TRIB1 (human) (UniProt Q96RU8); experiment: co-IP; Myc-tagged TRIB1 precipitated (Pierce anti-c-Myc magnetic beads) from total lysates of stable T08-387 cells; eluate blotted for Akt and p-Akt S473
T1 sequence: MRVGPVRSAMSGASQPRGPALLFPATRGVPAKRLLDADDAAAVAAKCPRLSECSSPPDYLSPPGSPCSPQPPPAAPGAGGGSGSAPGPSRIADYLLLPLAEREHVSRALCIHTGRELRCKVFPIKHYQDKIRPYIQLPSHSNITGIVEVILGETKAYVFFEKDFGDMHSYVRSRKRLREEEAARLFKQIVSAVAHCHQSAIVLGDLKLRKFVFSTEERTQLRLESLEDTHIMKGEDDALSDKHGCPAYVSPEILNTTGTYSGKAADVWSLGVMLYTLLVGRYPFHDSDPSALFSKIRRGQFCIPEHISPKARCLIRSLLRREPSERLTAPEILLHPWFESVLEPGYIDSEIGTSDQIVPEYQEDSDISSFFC

TRIB1-W337A-MYC (human) = biological target: T2, TRIB1-W337A-MYC (human) (UniProt Q96RU8); experiment: as above
T2 sequence: T1 sequence with W337A

binding (Myc-tagged TRIB1 (human)): binds | binding (TRIB1-W337A-MYC (human)): binds
Substance: Akt (human (endogenous in T08-387 and HEK293))
